The whole screen tested about 300,000 compounds, of which about 5,400 (1.8%) were called active. Inconclusive means that the source gave no clear call. Such entries were picked first, then a sample of the others. Calls come from the whole dose curve; tested in HEK293 cells. Potencies of inconclusive entries are doubtful fits and often do not repeat.
Assay: qHTS for inhibitors of binding or entry into cells for Marburg Virus
Details: Marburg virus pseudotyped entry inhibition, cell reporter; activity change, negative = inhibition: at 37.8 µM (top of the series) unless noted
% is set by controls: 0 for no effect and ±100 for the full control effect; potency is the fitted concentration of half-maximal effect.

Structure (SMILES) | Potency | activity change, negative = inhibition
C=CC[C@@H]1C=C[C@H](OC(=O)OCC)[C@@H](COC(=O)OCC)O1 | inconclusive: 0.376 µM [activator, partial curve, poor fit] | –
O=S(=O)(c1ccc(F)cc1)N1CCN(c2ccccn2)CC1 | inconclusive: 6.31 µM [activator, single point] | –
CCn1nc(C)cc1C(=O)NC1CCCc2c1cnn2-c1cc(F)cc(F)c1 (stereo not drawn) | inconclusive: 11.2 µM [inhibitor, partial curve] | –
O=C(/C=C\c1ccco1)Nc1ccc(N2CCN(C(=O)c3ccccc3)CC2)cc1 | inconclusive: 0.1 µM [activator, full curve, poor fit] | –
C/C(=N\NS(=O)(=O)c1ccc(Cl)c([N+](=O)[O-])c1)c1ccc(C)o1 | inactive | –
Cc1ncsc1CCOC(=O)c1cccc([N+](=O)[O-])c1 | inconclusive: 22.4 µM [inhibitor, single point] | –
O=C(Nc1ccccc1N1CCOCC1)C1CCN(S(=O)(=O)c2cccc(C(F)(F)F)c2)CC1 | inconclusive: 12.6 µM [inhibitor, partial curve, poor fit] | –
COc1ccc(C2=NC(C(F)(F)F)(C(F)(F)F)c3c(n(C)c(=O)n(C)c3=O)N2)cc1 | inconclusive: 1.3 µM [inhibitor, partial curve, poor fit] | –
NC(=O)C1CCC(NC(=O)OCc2ccccc2)CC1 (stereo not drawn) | inconclusive: 14.1 µM [activator, single point] | –
COc1cccc(Nc2ccc(C(=O)O)cc2N)c1 | inconclusive: 0.891 µM [activator, single point] | –
COc1ccc(-c2cc(C(=O)N(C)Cc3cccc(OC)c3OC)c3ccccc3n2)cc1OC | inconclusive: 35.5 µM [inhibitor, single point] | –
Cc1nnc(C)n1/N=C/c1cccs1 | inactive | –
COCCNC(=O)C(c1ccc(F)cc1)N(C(=O)CCC(=O)Nc1ccccn1)c1ccc(C)cc1 (stereo not drawn) | inconclusive: 10 µM [inhibitor, partial curve, poor fit] | –
O=C(N/N=C\C=C\c1ccco1)c1cc(-c2ccc3ccccc3c2)n[nH]1 | inactive | –
O=C1CC(c2ccccc2)(c2ccccc2)c2ccccc21 | inconclusive: 3.98 µM [inhibitor, partial curve, poor fit] | –
O=C(CSc1nc2c(sc3ccccc32)c(=O)n1CCO)NCc1ccco1 | inconclusive: 20.6 µM [inhibitor, partial curve] | –
O=C(NCc1ccc(Cl)cc1)c1cccnc1 | inactive | –
Cc1ccc(CN2CC(N3CCN(CCO)CC3)CS2(=O)=O)cc1 (stereo not drawn) | inconclusive: 0.0353 µM [activator, full curve, poor fit] | –
CC(Oc1ccc(Br)cc1)C(=O)Nc1ccc(S(=O)(=O)NC2=NCCCCC2)cc1 (stereo not drawn) | inconclusive: 35.5 µM [inhibitor, single point] | –
CCc1c(C)sc(NC(=O)Cn2nc(C(F)(F)F)c3c2CCCC3)c1C#N | inconclusive: 18.3 µM [inhibitor, single point] | –
COc1ccc(NC(=O)c2cc(-c3ccc(C)cc3)on2)cc1OC | inactive | –
COc1cc(C)c(CN2CC=C(c3ccc(F)cc3)CC2)cc1C | inconclusive: 15.8 µM [inhibitor, partial curve, poor fit] | –
CC(=O)c1c(C)n(-c2cccc(Cl)c2)c2ccc(O)cc12 | inconclusive: 10 µM [inhibitor, partial curve, poor fit] | –

Rewritten as a markdown table: part of the list above

| Structure (SMILES) | Potency | activity change, negative = inhibition |
| --- | --- | --- |
| Cc1ccc(CN2CC(N3CCN(CCO)CC3)CS2(=O)=O)cc1 (stereo not drawn) | inconclusive: 0.0353 µM [activator, full curve, poor fit] | – |
| CC(Oc1ccc(Br)cc1)C(=O)Nc1ccc(S(=O)(=O)NC2=NCCCCC2)cc1 (stereo not drawn) | inconclusive: 35.5 µM [inhibitor, single point] | – |
| CCc1c(C)sc(NC(=O)Cn2nc(C(F)(F)F)c3c2CCCC3)c1C#N | inconclusive: 18.3 µM [inhibitor, single point] | – |
| COc1ccc(NC(=O)c2cc(-c3ccc(C)cc3)on2)cc1OC | inactive | – |

The list goes on.

Structure (SMILES) | Potency | activity change, negative = inhibition
CCCn1c(-c2ccc(OC)cc2)nc2ccccc21 | inactive | –
CS/C(=C\[N+](=O)[O-])Nc1ccc(Cl)cc1 | inconclusive: 0.447 µM [activator, full curve, poor fit] | –
O=C(c1ccccc1NS(=O)(=O)c1ccc(F)cc1)N1CCOCC1 | inconclusive: 15.8 µM [activator, single point] | –
COC(=O)c1sccc1NC(=S)Nc1cc(C)cc(C)c1 | inconclusive: 3.55 µM [inhibitor, partial curve, poor fit] | –
CCOc1cc(/C=N/NC(=O)c2cccs2)cc([N+](=O)[O-])c1O | inactive | –
S=C(NCc1ccccc1)N1CCn2cccc2C1c1ccncc1 (stereo not drawn) | inactive | –
COc1cccc(N/C=C/C(=O)c2ccc(Cl)cc2)c1 | inconclusive: 18.4 µM [inhibitor, single point] | –
c1ccc(-c2nnc(-c3ccccn3)c(-c3ccccn3)n2)nc1 | inconclusive: 28.2 µM [inhibitor, single point] | –
Cc1[nH]c(=O)[nH]c(=O)c1NC(=O)c1sc2nc3c(C)cccc3cc2c1N | inactive | –
CSc1ccc(CN(C)CC(=O)Nc2ccccc2Br)cc1 | inactive | –
O=C(CCCCCN1C(=O)c2ccccc2C1=O)NCc1ccco1 | inactive | –
Cc1cccc2cc(CN(Cc3cccnc3)C(=S)NCCCN(C)C)c(=O)[nH]c12 | inactive | –
Cc1ccc(C)c(NC(=O)Cn2c(=O)n(CCCS(=O)(=O)C3CCCCC3)c(=O)c3ccccc32)c1 | inactive | –
O=[N+]([O-])c1ccc2c(c1)-c1ccccc1C2=NO | inconclusive: 1.26 µM [activator, full curve, poor fit] | –
O=C(Cc1cccc2ccccc12)NNC(=O)Nc1cccc(Cl)c1 | inconclusive: 10 µM [inhibitor, partial curve, poor fit] | –
CCN(CCCNC(=O)COc1cc(=O)n(CC)c2ccccc12)c1ccccc1 | inconclusive: 14.6 µM [inhibitor, partial curve, poor fit] | –
Cc1nnc(N2C(=O)c3ccc(Br)cc3C2=O)s1 | inconclusive: 1.26 µM [inhibitor, single point] | –
O=S(=O)(c1ccccc1Cl)N1CCCC1c1nc(-c2ccc(Cl)cc2)no1 (stereo not drawn) | inconclusive: 29.1 µM [inhibitor, single point] | –
Cc1ccc(-c2noc(N=O)c2NO)cc1 | inconclusive: 10 µM [inhibitor, partial curve, poor fit] | –
CC(C)C[C@H](NC(=O)OC(C)(C)C)c1nnc(SCC(=O)Nc2ccc(Br)cc2)o1 | inactive | –
O=C1N/C(=C/c2ccc(Br)s2)C(=O)N1c1ccccc1 | inconclusive: 7.94 µM [inhibitor, partial curve, poor fit] | –
Cc1cc(C)c(NC(=S)N(CCN2CCCCC2)Cc2ccco2)c(C)c1 | inconclusive: 10 µM [inhibitor, partial curve] | –
COc1cccc(N2CCN(C(=O)C3CCC(=O)N(C4CCCCCC4)C3)CC2)c1 (stereo not drawn) | inconclusive: 10 µM [inhibitor, partial curve] | –

Structure (SMILES) | Potency | activity change, negative = inhibition
C=CCSc1nc2sc3c(c2c(=O)n1-c1ccccc1)CCN(C)C3 | inconclusive: 35.5 µM [inhibitor, partial curve, poor fit] | –
CCc1ccc2nc(N3CCC(C(=O)NCCC(C)C)CC3)sc2c1 | – | inconclusive: 37.2% [activator] [at 46.1 µM]
O=C1N(c2ccccc2)C[C@@H]2C[C@@H](c3cc4ccccc4o3)N3CCC[C@@]123 | inconclusive: 1 µM [inhibitor, full curve, poor fit] | –
COc1cc(-c2cc(-c3ccc(O)cc3)nc(N)c2C#N)ccc1O | inconclusive: 7.08 µM [inhibitor, partial curve, poor fit] | –
C#CCn1c(-c2ccccc2)ccc(C#N)c1=O | inconclusive: 8.91 µM [inhibitor, partial curve] | –
O=c1c2ccccc2n2c(-c3cccc(Cl)c3)nnc2n1Cc1ccccc1 | inconclusive: 2.82 µM [activator, single point] | –
COc1ccc(-c2cc(C(F)(F)F)nc(N3CCCCCC3)n2)cc1 | inactive | –
Cc1ccc(C)c(C(C)NC(=O)c2ccc(Br)o2)c1 (stereo not drawn) | – | inconclusive: 12% [activator] [at 46.1 µM]
Cc1nnc(SCC(=O)Nc2ccc3c(c2)OCO3)o1 | inactive | –
CCNC(=S)NNC(=O)c1csc2c1CCC(C)C2 (stereo not drawn) | inactive | –
CCCC(=O)N1CCN(c2ccc(NC(=O)c3ccc([N+](=O)[O-])o3)cc2Cl)CC1 | inconclusive: 10 µM [inhibitor, partial curve, poor fit] | –
CCc1cccc(CC)c1NC(=O)/C(C#N)=C/c1ccccc1C(F)(F)F | inconclusive: 0.631 µM [activator, single point] | –
COC(=O)C(=N/Nc1ccccc1C(=O)OC)/C(C)=N/O | inconclusive: 14.1 µM [inhibitor, single point] | –
COc1ccc(/C=N/NC(=O)C(=O)Nc2ccccn2)cc1OC | inactive | –
CCc1ccc(N(C(=O)c2snc(C(N)=O)c2N)C(C(=O)NC2CCCC2)c2ccco2)cc1 (stereo not drawn) | active: 7.94 µM | –
CCCC(=O)OC1=C(C(C)=O)N(Cc2ccccc2)S(=O)(=O)c2ccccc21 | inactive | –
CCN(c1ccccc1)S(=O)(=O)c1cc(C(=O)Nc2ccccc2Cl)ccc1F | inconclusive: 5.62 µM [activator, single point] | –
CCCN(CCC)Cc1cc(=O)oc2cc(C)c(C)cc12 | inconclusive: 0.0044 µM [inhibitor, full curve, poor fit] | –
c1cncc(CSc2ccc(-c3cccs3)nn2)c1 | inactive | –
O=[N+]([O-])c1cccnc1Sc1ccc(Cl)cc1 | inconclusive: 35.5 µM [inhibitor, single point] | –
Cc1nc2ccc(NC(=O)c3ccc([N+](=O)[O-])cc3[N+](=O)[O-])cc2s1 | inactive | –
O=C(c1ccc(Cl)cc1)[C@@H]1[C@@H]2C(=O)N(c3ccc(Cl)cc3)C(=O)[C@@H]2C2c3ccccc3C=NN21 (stereo partly drawn) | inconclusive: 6.51 µM [activator, single point] | –

Reference: PubChem BioAssay AID540276 (National Center for Advancing Translational Sciences (NCATS), 2011)
